Results reported in publication doi:10.1101/2021.10.27.466115.
For at least one entry, the source does not settle the construct or the ends of the probe.

target: GST-Rib-PSQ DNA-binding domain (UniProt Q7KF43); assay: EMSA

Binding result, binds:
AACGTGTCTCGCGCGGGCACACTGGCCTCTTTCTTTTCTGCGCACCACGT (double strand) [RpS3]
AACTGCCACTTCCTTTCTTTTTCGTTCCACGTTTCCGGTGAGTGCATGTG (double strand) [RpL7A]
ACACAACCACCCTGGTCACACGGCATCCGGCGGGGGCGGGCGGGGCCGGC (double strand) [RpS17*]
ACACAACCACCCTGGTCACACGGCATCCTTCTTTTTCTTTCGTTTCCGGC (double strand) [RpS17]
ACTGCCATTTCCTTTCTTTTTCGTTCCACGTTTCCGGTGAGTGCATGTGC (double strand) [RpL17]
ATCCCTTCCGTTTCCCTTTCTTTTCGTCTTCACGTTTCCGGTGAGTGCGT (double strand) [RpS10b]
CCCTGGTCACACCGCTCTAGACATAACCTTCCTTTTCCAATAATTTTTGT (double strand) [RpL6]
CGCGGCCACACTATCCTTTCCTTCTTTTCTTACAAGTTTCCGGTGAGTGC (double strand) [RpL11]
GGCAGCCACATTAATTCGGCCTTCTTTTCTTTTCCCGTTTCCGGTGAGTG (double strand) [RpS18]
TTCAACTTCCTGTCACGCTGTGTGTGTGTTCTTTCTTTCCTTTGATTCTG (double strand) [RpS27A]
TTCCGGCTGTCAAATTTTTCTTTCTTTCCTAGCCACGACGAGGTCGACAG (double strand) [RpL19]
